The values that follow come from PubChem BioAssay (NCATS).

Test [1] can be described thus: qHTS assay for small molecule antagonists of peroxisome proliferator-activated receptor delta signaling (AID 588535).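 Note: cells co-treated with a PPAR-delta agonist as stimulator during compound exposure.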 Conditions: HEK293T PPARd-UAS-bla, beta-lactamase FRET ratio, 18 h; 460 nm channel. A general note: Quantitative high-throughput screening tests each substance at several concentrations.
A short description of test [2]: qHTS assay for small molecule agonists of retinoid X receptor alpha signaling (AID 588544). As to conditions: HEK293T RXRa-UAS-bla, beta-lactamase reporter, 18 h; 530 nm emission.
Test [3] in a line: qHTS assay for small molecule antagonists of retinoid X receptor alpha signaling (AID 588546).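 Note: cells stimulated with 9-cis-retinoic acid as agonist; % is set by controls: 0 for no effect and ±100 for the full control effect.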 Conditions: HEK293T RXRa-UAS-bla, beta-lactamase ratio, antagonist mode; measured here: W530 green channel, cytotoxicity proxy. The source says:
NIH Chemical Genomics Center [NCGC] U.S. Environmental Protection Agency [EPA] National Institutes of Environmental Health Sciences [NIEHS] National Toxicology Program [NTP] NCGC Assay Overview The Retinoid X receptor (RXR), a nuclear hormone receptor is expressed in liver, spleen, placenta, epidermis, central nervous system. These receptors are able to form homo and heterodimers with other nuclear receptors and due to this heterodimerizing ability, RXR functions as master regulators producing diverse physiological effects. Three subtypes of RXR exist; alpha, beta and gamma. […]
NCGC Assay Protocol Summary Using a beta-lactamase reporter-gene under control of Retinoid X receptor--alpha (RXR-alpha) response element, a cell-based assay [GeneBLAzer (RXR-alpha -UAS-bla assay developed by Invitrogen] was used to measure RXR-alpha ligands signaling. GeneBLAzer RXR-alpha -UAS-bla HEK293T cells were used with assay medium containing 2% charcoal-stripped FBS. The assay was performed in clear bottom black Greiner 1536-well plates. Library compounds were measured for their ability to inhibit the reporter gene activity. Compounds were screened in a titration series in 1536-well format. The fluorescence intensity (405 nm excitation, 460/530 nm emission) was measured using an EnVision plate reader. […] Detection; Fluorescence; Envision plate reader

The nature of test [4]: qHTS drug screen for cell cycle checkpoint inhibitors in PARPi-resistant BRCA-mutant ovarian cancer cell lines. (AID 1963452). As to conditions: PEO1/OlaR viability, CellTiter-Glo luminescence, 96 h, stronger effect = lower value. The text has this: Women's Malignancies Branch, Center for Cancer Research (CCR),
National Cancer Institute (NCI), National Institutes of Health (NIH), Bethesda, MD
Poly (ADP-ribose) polymerase inhibitors (PARPis) have changed the treatment paradigm in breast cancer gene (BRCA) - mutant high-grade serous ovarian carcinoma (HGSC). However, most patients eventually develop resistance to PARPis, highlighting an unmet need for improved therapeutic strategies. Using high-throughput drug screens, we identified ataxia telangiectasia and rad3-related protein/checkpoint kinase 1 (CHK1) pathway inhibitors as cytotoxic and further validated the activity of the CHK1 inhibitor (CHK1i) prexasertib in PARPi-sensitive and -resistant BRCA-mutant HGSC cells and xenograft mouse models. CHK1i monotherapy induced DNA damage, apoptosis, and tumor size reduction. We then conducted a phase 2 study (NCT02203513) of prexasertib in patients with BRCA-mutant HGSC. The treatment was well tolerated but yielded an objective response rate of 6% (1 of 17; one partial response) in patients with previous PARPi treatment. […] BRCA reversion mutation in previously PARPi-treated BRCA-mutant patients was not associated with resistance to CHK1i. […]
6; Detection; Luminescence, PHERAstar (BMG Labtech) plate reader. […]
6. Luminescence readings were taken using PHERAstar (BMG Labtech). […]

Where “and” joins values, the source holds several entries; their conditions need not be identical. Equal entries are not always repeated. The list shows a part of the results.

In the case of `O=[N+]([O-])C(Cl)(Cl)Cl`, the max response in test [1] is 20.6% and 63%; in test [2], -5.5% and -18%; in test [3], -12.2% and -1.32%.

With `Cc1c([N+](=O)[O-])cccc1[N+](=O)[O-]`, the max response in test [1] turned out to be 15.9%.

Turning to `NC(=O)Nc1ccc([As](=O)(O)O)cc1`, the max response in test [2] is -12.6%.

Take `CN(CCCl)CCCl`: the Z-AUC turned out to be 0.218 in test [4] (measured here: PEO1 parental Z-AUC) and 0.181 in test [4] (measured here: PEO4 Z-AUC).
